Measurements from publication doi:10.1101/410092.
Read-outs that look alike come from different tables or passages of the source. No constants are given. Whether binding was seen depends on the method and setting. In cells and extracts the contact can be indirect. Some entries that bind do so weakly or less than the wild type. Sequences can lack the tags named with a protein.

By UniProt entry, the sequences of proteins in these tests, tags left out.
UniProt P22366: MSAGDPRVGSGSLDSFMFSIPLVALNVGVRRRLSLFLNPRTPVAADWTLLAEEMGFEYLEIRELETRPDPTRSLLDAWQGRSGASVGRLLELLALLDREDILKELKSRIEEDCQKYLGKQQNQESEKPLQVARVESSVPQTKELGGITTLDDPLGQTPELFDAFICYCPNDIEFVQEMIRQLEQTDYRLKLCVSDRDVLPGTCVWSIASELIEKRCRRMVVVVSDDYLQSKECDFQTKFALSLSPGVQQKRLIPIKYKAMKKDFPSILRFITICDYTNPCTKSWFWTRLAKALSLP

What was measured:
Assay in all cases: co-IP
[1] = molecular target: T1, TLR9, HA-tagged (UniProt Q9EQU3)
T1 sequence: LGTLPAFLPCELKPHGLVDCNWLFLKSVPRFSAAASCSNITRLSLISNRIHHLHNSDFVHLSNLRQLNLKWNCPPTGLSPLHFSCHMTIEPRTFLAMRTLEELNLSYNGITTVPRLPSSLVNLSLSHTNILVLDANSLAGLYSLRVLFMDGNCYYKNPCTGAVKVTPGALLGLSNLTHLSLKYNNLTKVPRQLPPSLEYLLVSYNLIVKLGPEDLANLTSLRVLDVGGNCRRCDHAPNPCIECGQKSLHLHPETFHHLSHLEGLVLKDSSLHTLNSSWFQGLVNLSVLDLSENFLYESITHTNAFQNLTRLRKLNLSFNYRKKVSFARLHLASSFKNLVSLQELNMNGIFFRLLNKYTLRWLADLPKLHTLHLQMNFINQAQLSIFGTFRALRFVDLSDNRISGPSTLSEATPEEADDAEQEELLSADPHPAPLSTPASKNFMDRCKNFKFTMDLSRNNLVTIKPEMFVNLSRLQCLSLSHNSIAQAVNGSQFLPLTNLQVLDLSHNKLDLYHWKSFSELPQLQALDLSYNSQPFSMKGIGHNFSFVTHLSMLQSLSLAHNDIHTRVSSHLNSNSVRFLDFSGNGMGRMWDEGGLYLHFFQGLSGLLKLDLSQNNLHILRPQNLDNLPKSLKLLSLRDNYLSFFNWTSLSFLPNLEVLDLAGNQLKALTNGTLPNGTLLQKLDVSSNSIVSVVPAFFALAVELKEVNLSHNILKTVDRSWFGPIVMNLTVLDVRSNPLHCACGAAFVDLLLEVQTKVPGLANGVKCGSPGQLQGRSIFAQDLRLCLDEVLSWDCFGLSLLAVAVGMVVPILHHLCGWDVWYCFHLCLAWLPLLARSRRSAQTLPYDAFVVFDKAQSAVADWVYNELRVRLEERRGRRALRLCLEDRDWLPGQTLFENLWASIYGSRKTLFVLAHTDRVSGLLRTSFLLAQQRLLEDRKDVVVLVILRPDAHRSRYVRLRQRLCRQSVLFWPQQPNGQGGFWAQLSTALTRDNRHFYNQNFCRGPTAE

[2] = molecular target: T2, TLR7, HA-tagged (UniProt P58681)
T2 sequence: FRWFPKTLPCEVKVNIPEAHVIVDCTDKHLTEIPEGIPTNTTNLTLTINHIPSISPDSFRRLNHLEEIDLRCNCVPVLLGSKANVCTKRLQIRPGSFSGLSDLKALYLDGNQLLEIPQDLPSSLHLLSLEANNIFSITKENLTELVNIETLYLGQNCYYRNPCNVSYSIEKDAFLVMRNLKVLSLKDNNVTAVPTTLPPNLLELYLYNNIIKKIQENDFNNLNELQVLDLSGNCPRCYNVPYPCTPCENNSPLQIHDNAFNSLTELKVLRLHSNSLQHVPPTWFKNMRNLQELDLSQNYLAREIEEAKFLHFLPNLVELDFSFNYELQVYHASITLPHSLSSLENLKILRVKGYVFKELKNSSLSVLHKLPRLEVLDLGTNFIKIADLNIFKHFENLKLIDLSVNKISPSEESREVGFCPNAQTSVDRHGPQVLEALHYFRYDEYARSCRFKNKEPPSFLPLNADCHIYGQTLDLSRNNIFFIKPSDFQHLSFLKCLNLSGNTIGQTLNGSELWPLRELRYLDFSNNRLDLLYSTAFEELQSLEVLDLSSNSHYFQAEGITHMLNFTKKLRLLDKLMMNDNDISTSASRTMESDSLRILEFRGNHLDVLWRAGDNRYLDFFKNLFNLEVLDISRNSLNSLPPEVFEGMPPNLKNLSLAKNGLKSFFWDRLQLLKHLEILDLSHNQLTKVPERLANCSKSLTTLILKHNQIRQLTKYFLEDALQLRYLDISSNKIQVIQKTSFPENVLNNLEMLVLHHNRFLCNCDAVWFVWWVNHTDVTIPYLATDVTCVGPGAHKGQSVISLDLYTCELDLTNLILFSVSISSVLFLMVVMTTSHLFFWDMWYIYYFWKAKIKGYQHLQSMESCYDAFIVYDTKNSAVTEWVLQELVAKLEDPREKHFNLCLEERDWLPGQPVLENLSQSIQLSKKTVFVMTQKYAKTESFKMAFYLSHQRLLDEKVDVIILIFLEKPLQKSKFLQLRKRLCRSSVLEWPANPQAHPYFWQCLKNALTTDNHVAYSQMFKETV

[3] = molecular target: T1, TLR9, HA-tagged; remark: listed apart in the source
[4] = molecular target: T2, TLR7, HA-tagged; remark: listed apart in the source
[5] = molecular target: MyD88 (mouse (endogenous in RAW264.7)) (UniProt P22366)

binding [1]: binds
binding [2]: binds
binding [3]: binds
binding [4]: binds
binding [5]: no binding
B1: Unc93b1 wildtype, 3xFLAG-tagged (protein, UniProt Q8VCW4 1-598)
chain: MEVEPPLYPVAGAAGPQGDEDRHGVPDGPEAPLDELVGAYPNYNEEEEERRYYRRKRLGVVKNVLAASTGVTLTYGVYLGLLQMQLILHYDETYREVKYGNMGLPDIDSKMLMGINVTPIAALLYTPVLIRFFGTKWMMFLAVGIYALFVSTNYWERYYTLVPSAVALGMAIVPLWASMGNYITRMSQKYYEYSHYKEQDEQGPQQRPPRGSHAPYLLVFQAIFYSFFHLSFACAQLPMIYFLNNYLYDLNHTLINVQSCGTKSQGILNGFNKTVLRTLPRSKNLIVVESVLMAVAFLAMLMVLGLCGAAYRPTEEIDLRSVGWGNIFQLPFKHVRDFRLRHLVPFFIYSGFEVLFACTGFALGYGVCSMGLERLAYLLIAYSLGASASSVLGLLGLWLPRSVPLVAGAGLHLLLTLSLFFWAPAPRVLQHSWIFYFVAALWGVGSALNKTGLSTLLGILYEDKERQDFIFTIYHWWQAVAIFVVYLGSSLPMKAKLAVLLVTLVAAAASYLWMEQKLQQGLVPRQPRIPKPQHKVRGYRYLEEDNSDESDMEGEQGQGDCAEDEAPQAGPLGAEPAGPCRKPCPYEQALGGDGPEEQ
